Values from PubChem BioAssay AID602196 (INSERM, 2012).
Aim: 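Genes whose knock-down alters cisplatin killing of lung cancer cells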. Cell system: human A549 lung cancer cells. Reagent: siRNA pair against human genes. Timing: 48 h transfection before cisplatin; time from cisplatin to read-out not stated. Treatment: cisplatin at a dose killing half of control-siRNA cells; exact dose and duration not given. Measurement: 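Shift in cisplatin death relative to control siRNA, from -50 (all cells die) to +50 (no cells die); siRNAs harmful on their own scored 0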. Direction: two-siRNA summed score (-2 to +2): higher = both siRNAs protect from cisplatin killing; -2 means both sensitise; mean protection from cisplatin (shift in death) and protection from cisplatin (shift in death), siRNA C and protection from cisplatin (shift in death), siRNA D: higher = protection from cisplatin killing. Hit rule: 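siRNAs harmful alone (LDH or WST-1) get 0; others get +1 for less and -1 for more cisplatin killing; genes are active when the two siRNAs give the same sign, summing to ±2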. Meaning of the calls: active = both siRNAs shift cisplatin killing the same way; inactive = no consistent shift, or siRNA harmful alone.
The whole screen tested about 23,000 reagents; this is an unselected part. Of all reagents, 455 (2%) were called active. 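Active includes both protection and sensitisation; some change values fall well beyond the stated -50 to +50 range.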 Entries without a mark were called inactive. No sequences are given here. Not given: the amount of reagent.

| Gene | two-siRNA summed score (-2 to +2) | mean protection from cisplatin (shift in death) (%) | protection from cisplatin (shift in death), siRNA C (%) | protection from cisplatin (shift in death), siRNA D (%) |
| --- | --- | --- | --- | --- |
| CCL26 | -1 | -11.9 | 5 | -28.7 |
| MRM3 | 0 | -10.5 | 14.5 | -35.5 |
| GINS4 | 0 | 14.7 | 7.1 | 22.4 |
| ARK2N | 1 | 26.1 | 28.1 | 24.1 |
| LOC388622 | 0 | 14.8 | 0.2 | 29.3 |
| UVRAG | -1 | -3.4 | -16.2 | 9.5 |
| LOC388549 | 0 | 14.1 | 17.7 | 10.6 |
| NDUFA5 | 0 | 7.9 | 6.7 | 9.2 |
| LDLRAD3 | -1 | 4.3 | 27.6 | -19 |
| CHD2 | 1 | 18.1 | 3.7 | 32.6 |
| GLT1D1 | 0 | 2.8 | -3.5 | 9.1 |
| ADCK2 | 1 | 2.9 | -9.2 | 15.1 |
| TLCD3B | 0 | 1 | 5 | -3.1 |
| DCUN1D2 | 0 | -2.2 | -7.9 | 3.6 |
| IFIT2 | 0 | -10.5 | -15.2 | -5.8 |
| DPPA3P2 | 0 | 3.4 | 9.5 | -2.7 |
| CWC27 | 1 | 12.9 | 3.9 | 22 |
| LOC343184 | 1 | 13.8 | 13.6 | 14 |
| HCK | 0 | 9.2 | 7.6 | 10.9 |
| LOC399851 (retired record) | 1 | 8.9 | 17.5 | 0.4 |
| PCSK2 | 0 | 10.3 | 13.9 | 6.7 |
| LOC389338 | 0 | 9.8 | 8.4 | 11.3 |
| KLHL9 | 0 | 10.4 | 3.9 | 16.8 |
| KTN1 | -2 (active) | -43.1 | -27.3 | -58.9 |
| CX3CR1 | 0 | 3 | -0.2 | 6.2 |
| DNAAF19 | 0 | 11.8 | 20.1 | 3.6 |
| KLF11 | -1 | -7 | 0.8 | -14.8 |
| DMRTC2 | -1 | -10.3 | -25.2 | 4.6 |
| RNF32 | 0 | 9.4 | 8.3 | 10.5 |
| PRDM11 | 0 | 2.4 | -15.1 | 20 |
| LOC401581 | 2 (active) | 13.6 | 11.2 | 16 |
| KCNAB1 | 1 | 8 | -9.3 | 25.4 |
| LOC390748 | 0 | 7.7 | 14 | 1.4 |
| HTR1F | 1 | 13.2 | 16.3 | 10 |
| PROX1 | 0 | 5.3 | 9.1 | 1.4 |
| TMEM154 | 0 | 8.6 | 4.7 | 12.5 |
| LRRC37BP1 | 0 | 12.3 | 10.6 | 14.1 |
| ACBD5 | 0 | 6.8 | 20.2 | -6.5 |
| KIF3C | 0 | -20.5 | -19.5 | -21.6 |

Part of the list above, limited to “protection from cisplatin (shift in death), siRNA C (%)”.
CHD2: 3.7
GLT1D1: -3.5
ADCK2: -9.2
TLCD3B: 5
DCUN1D2: -7.9
